Patent US20150017162A1
No constants are given. Whether binding was seen depends on the method and setting. Some results given as binding are weak or reduced against the parent protein; the word gives no strength.

Sequences of proteins named here, by UniProt entry; tags and fusion partners are left off. A change or cut given only in a name is not applied to a line headed by its entry.
UniProt O00187: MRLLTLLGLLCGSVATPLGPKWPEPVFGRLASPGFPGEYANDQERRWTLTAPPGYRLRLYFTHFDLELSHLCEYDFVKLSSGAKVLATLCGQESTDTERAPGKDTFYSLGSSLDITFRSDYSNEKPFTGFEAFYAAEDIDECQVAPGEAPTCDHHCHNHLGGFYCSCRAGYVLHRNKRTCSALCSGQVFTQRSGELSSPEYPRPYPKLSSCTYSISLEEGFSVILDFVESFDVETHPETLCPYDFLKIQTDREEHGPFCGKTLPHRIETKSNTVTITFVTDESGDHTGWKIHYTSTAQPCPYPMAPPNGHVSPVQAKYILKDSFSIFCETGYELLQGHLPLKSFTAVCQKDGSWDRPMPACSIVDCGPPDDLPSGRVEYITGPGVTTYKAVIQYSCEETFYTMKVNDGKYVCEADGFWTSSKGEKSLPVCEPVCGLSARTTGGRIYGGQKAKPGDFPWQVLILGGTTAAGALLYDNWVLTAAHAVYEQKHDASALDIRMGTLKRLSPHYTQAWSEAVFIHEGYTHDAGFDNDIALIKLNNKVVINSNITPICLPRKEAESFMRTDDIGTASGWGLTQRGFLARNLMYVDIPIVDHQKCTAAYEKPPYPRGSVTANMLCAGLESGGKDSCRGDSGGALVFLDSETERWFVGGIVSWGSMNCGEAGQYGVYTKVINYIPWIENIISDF

What was measured:
[1] = biological target: human MASP-2 (human) (UniProt O00187); test: Western blot
[2] = biological target: human MASP-2 (human) (UniProt O00187); test: phage display panning and ELISA screening (Example 5, as told in the description)

B1: NimoAb101 (antibody, V domains shown)
VH: EVQLVESGGGLVQPGRSLKLSCLVSGFTFSNFGMNWIRQAPGKGLEWVASISSGGTYIYHADTLKGRFTISRENAKNTLYLQMTSLRSEDTALYYCARGPYHSRYIPYLMDAWGQGASVTVSS
VL: DIQMTQSPGSLCASLGETVTIECRASDDIYSNLAWYQQKPGNSPQLLIFDGNRLADGVPSRFSGSGSGTQYSLKMKSLQFEDVASYFCQQYNNYPLTFGSGTKLEIKR
[1]
  binding: binds

B2: scFv clone 17D20 (scFv)
scFv: QVTLKESGPVLVKPTETLTLTCTVSGFSLSRGKMGVSWIRQPPGKALEWLAHIFSSDEKSYRTSLKSRLTISKDTSKNQVVLTMTNMDPVDTATYYCARIRAGGIDYWGQGTLVTVSSKLSGSASAPKLEEGEFSEARVQPVLTQPPSVSVSPGQTASITCSGDKLGDKFAYWYQQKPGHSPVLVIYQDNKRPSGIPGRFSGSNSGNTATLTISGTQAMDEADYYCQAWDSSTAVFGTGTKVTVLAAAGSEQKLISEEDLNSHHHHHH
[2]
  binding: binds

B3: scFv clone 4D9 (scFv)
scFv: QITLKESGPVLVKPTETLTLTCTVSGFSLSNARMGVSWIRQPPGKALEWLAHIFSNDEKSYSTSLKSRLTISKDTSKSQVVLTMTNMDPVDTATYYCARMRYSSSLYGMDVWGQGTRVTVSSKLSGSASAPKLEEGEFSEARVSYELIQPPSVSVSPGQTASITCSGDKLGDKYVSWYQQKPGRSPVLVIYRDTKRPSGIPERFSGSNSGNTATLTISGTQAMDEADYYCQAWDSSTVVFGGGTKLTVLAAAGSEQKLISEEDLNSHHHHHH
[2]
  binding: binds

B4: scFv clone 17N16 (scFv)
scFv: QVQLQQSGPGLVKPSQTLSLTCAISGDSVSSTSAAWNWIRQSPSRGLEWLGRTYYRSKWYNDYAVSVKSRITINPDTSKNQFSLQLNSVTPEDTAVYYCARDPFGVPFDIWGQGTMVTVSSKLSGSASAPKLEEGEFSEARVSYVLTQPPSVSVAPGQTARITCGGNNIGSKNVHWYQQKPGQAPVLVVYDDSDRPSGIPERFSGSNSGNTATLTVSRVEAGDEADYYCQVWDTTTDHVVFGGGTKLTVLAAAGSEQKLISEEDLNSHHHHHH
[2]
  binding: binds

B5: scFv clone 3F22 (scFv)
scFv: QVQLQQSGPGLVKPSQTLSLTCAISGDSVSSNSAAWNWIRQSPSRGLEWLGRTYYRSKWYNDYAVSVKSRITINPDTSKNQFSLQLNSVTPEDTAVYYCARDPFGVPFDIWGQGTMVTVSSKLSGSASAPKLEEGEFSEARVSYVLTQPPSVSVAPGQTARVTCGGNNIRSKNVHWYQQKPGQAPVLVVYDDTDRPSGIPERFSGSNSGNTATLTVSRVEAGDEADYYCQVWDTTTDHVVFGGGTKLTVLAAAGSEQKLISEEDLNSHHHHHH
[2]
  binding: binds

B6: scFv clone 9P13 (scFv)
scFv: QVQLQQSGPGLVKPSQTLSLTCAISGDSVSSNSAAWNWIRQSPSRGLEWLGRTYYRSKWYNDYAVSVKSRITINPDTSKNQFSLQLNSVTPEDTAVYYCARDPFGVPFDIWGQGTMVTVSSKLSGSASAPKLEEGEFSEARVSYELTQLPSVSVAPGQTARVTCGGNNIRSKNVHWYQQKPGQAPVLVVYDDTDRPSGIPERFSGSNSGNTATLTVSRVEAGDEADYYCQVWDTTTDHVVFGGGTKVTVLAAAGSEQKLISEEDLNSHHHHHH
[2]
  binding: binds
